In this experiment the test system is C57BL/6 mice, intracerebral ependymoblastoma, median survival T/C. Kind of experiment: NCI In Vivo Anticancer Drug Screen. Data for tumor model Ependymoblastoma (intracerebral) in C57BL/6 mice. Particulars: T/C endpoint: median survival time, higher T/C = longer survival. Here is the method:
The antitumor activity of compounds was measured in mice bearing transplantable tumors. Survival or tumor size were measured and the results are expressed as the measurement made in the treated group (T) divided by the measurement made in the vehicle treated control group (C). The tumor model used in this assay is Ependymoblastoma (intracerebral) in C57BL/6 mice

The mark [1] stands for this setting: dose: 10.0 mg/kg/injection, schedule: Q01DX001 (ip), vehicle: Klucel (hydroxypropylcellulose) (HPC).
The mark [2] stands for this setting: dose: 20.0 mg/kg/injection, schedule: Q01DX001 (ip), vehicle: Klucel (hydroxypropylcellulose) (HPC).
[3] abbreviates: dose: 40.0 mg/kg/injection, schedule: Q01DX001 (ip), vehicle: Klucel (hydroxypropylcellulose) (HPC).
The mark [4] stands for this setting: dose: 256.0 mg/kg/injection, schedule: Q01DX001 (ip), vehicle: other.
Where [5] appears, read: dose: 256.0 mg/kg/injection, schedule: Q## X006 (ip), vehicle: other.
Where [6] appears, read: dose: 512.0 mg/kg/injection, schedule: Q01DX001 (ip), vehicle: other.

This is an account of results in PubChem BioAssay AID222 (DTP/NCI, 2004).

The list is a part of this screen's results and no random one: it is rich in T/C values a quarter to a half above the control, in often repeated tests (any T/C) and in doses without a T/C. Further doses and runs are listed elsewhere. T/C: endpoint of the treated group in % of that of the vehicle group. Some doses have a count of surviving animals in place of a T/C: the source files T/C as zero there, which appears to mark a toxic dose or a test without result, not a measured value. Some doses without a T/C left all or most animals alive at the check, yet need not have been tolerated: the source hardly ever lists a survival T/C far under the control, and the zero likely stands for such cases as well. Counts of survivors are from the toxicity check (mostly the fifth day) where no day follows; animals may have died later. Schedules are NCI's codes, taken here to give the interval after Q, in days (D) or hours (H), and the number of doses after X. Some entries hold several experiments; the results are listed from low to high. Some schedules carry Z or #; the key to these is not given. Where survival is the endpoint, the PubChem record calls one and a half times the control and up active, and a quarter to a half above the control has no call in these data; cut-offs in other NCI protocols can differ. Some T/C values are followed by the survivors on the day toxicity was checked, most often the fifth; without a count, all were alive then. Additions like (4×) say how often a value occurs here.

For the molecule `CN(N=O)C(N)=O`, the T/C was 139 % of control under setting [1], 134 % of control under setting [2] and 132 % of control under setting [3]. In addition, the survivor count (dose: 160.0 mg/kg/injection, schedule: Q01DX001 (ip), vehicle: Klucel (hydroxypropylcellulose) (HPC)) was 8 of 10.

Take `CCC(=O)NC1=C(N2CC2C)C(=O)C(NC(=O)CC)=C(N2CC2C)C1=O` (stereo unspecified): the survivor count reads like this: (dose: 12.5 mg/kg/injection, schedule: Q01DX009 (ip), vehicle: Klucel (hydroxypropylcellulose) (HPC)) 6 of 6; (dose: 25.0 mg/kg/injection, schedule: Q01DX009 (ip), vehicle: Klucel (hydroxypropylcellulose) (HPC)) 6 of 6; (dose: 50.0 mg/kg/injection, schedule: Q01DX009 (ip), vehicle: Klucel (hydroxypropylcellulose) (HPC)) 6 of 6.

Consider `CN(N=O)C(=O)N[C@@H](C=O)[C@@H](O)[C@H](O)[C@H](O)CO`, for which the T/C runs as follows: (dose: 32.0 mg/kg/injection, schedule: Q01DX001 (ip), vehicle: saline) 94, 96 [4 of 10 alive], 100, 109, 114 % of control [9 of 10 alive]; (dose: 64.0 mg/kg/injection, schedule: Q01DX001 (ip), vehicle: other) 100, 106, 110 [7 of 10 alive], 112 % of control; (dose: 64.0 mg/kg/injection, schedule: Q01DX001 (ip), vehicle: saline) 97 [4 of 9 alive], 103, 105, 114 [7 of 10 alive], 115 % of control; (dose: 64.0 mg/kg/injection, schedule: Q01DX001 (oral), vehicle: saline) 94 [3 of 9 alive], 97, 98, 99, 99 % of control [6 of 10 alive]; (dose: 64.0 mg/kg/injection, schedule: Q01DX005 (ip), vehicle: saline) 132 % of control; (dose: 64.0 mg/kg/injection, schedule: Q## X006 (ip), vehicle: other) 129 % of control. Besides, the T/C (dose: 115.8 mg/kg/injection, schedule: Q## X006 (ip), vehicle: saline) was 135 % of control; the T/C (dose: 128.0 mg/kg/injection, schedule: Q01DX001 (ip), vehicle: other) is 98 [6 of 10 alive], 108 (2×), 123 % of control; the T/C (dose: 128.0 mg/kg/injection, schedule: Q01DX001 (ip), vehicle: saline) is 104 [5 of 10 alive], 105, 119, 120 [9 of 10 alive], 133 % of control; the T/C (dose: 128.0 mg/kg/injection, schedule: Q01DX001 (oral), vehicle: saline) was 91 [1 of 8 alive], 100 [9 of 10 alive] (2×), 102, 108 % of control; the T/C (dose: 128.0 mg/kg/injection, schedule: Q## X006 (ip), vehicle: other) was 139 % of control; the T/C under setting [4] is 89, 101, 114 % of control [7 of 10 alive]. The T/C reads like this: (dose: 256.0 mg/kg/injection, schedule: Q01DX001 (ip), vehicle: saline) 100 [6 of 8 alive], 102, 104 [6 of 10 alive], 109, 113 % of control [9 of 10 alive]; (dose: 256.0 mg/kg/injection, schedule: Q01DX001 (oral), vehicle: saline) 96, 103 [8 of 10 alive], 104 [4 of 8 alive], 105, 109 % of control; under setting [5], 127 % of control; under setting [6], 106 and 109 % of control [5 of 10 alive]; (dose: 512.0 mg/kg/injection, schedule: Q01DX001 (oral), vehicle: saline) 91 [9 of 10 alive], 96 [4 of 10 alive], 98 [9 of 10 alive], 100, 112 % of control [8 of 10 alive]; (dose: 1024.0 mg/kg/injection, schedule: Q01DX001 (oral), vehicle: saline) 96 [4 of 10 alive], 104 (2×), 113, 116 % of control [8 of 10 alive]. The survivor count by setting is: (dose: 128.0 mg/kg/injection, schedule: Q01DX005 (ip), vehicle: other) 9 of 10; (dose: 128.0 mg/kg/injection, schedule: Q01DX005 (ip), vehicle: saline) 9 of 10; (dose: 128.0 mg/kg/injection, schedule: Q01DX005 (oral), vehicle: other) 10 of 10; under setting [4], 7 of 10; (dose: 256.0 mg/kg/injection, schedule: Q01DX005 (ip), vehicle: other) 0 of 10; (dose: 256.0 mg/kg/injection, schedule: Q01DX005 (ip), vehicle: saline) 0 of 10. In addition, the survivor count runs as follows: under setting [5], 1 of 10; (dose: 256.0 mg/kg/injection, schedule: Q#A X002 (ip), vehicle: saline) 0 of 10; under setting [6], 5 of 10 and 7 of 10; (dose: 512.0 mg/kg/injection, schedule: Q01DX001 (ip), vehicle: saline) 1 of 10, 2 of 10, 6 of 10; (dose: 512.0 mg/kg/injection, schedule: Q01DX005 (oral), vehicle: other) 10 of 10; (dose: 512.0 mg/kg/injection, schedule: Q## X006 (ip), vehicle: other) 0 of 10 and 10 of 10. Also, the survivor count (dose: 1024.0 mg/kg/injection, schedule: Q01DX001 (ip), vehicle: other) is 0 of 10 and 1 of 10; the survivor count (dose: 1024.0 mg/kg/injection, schedule: Q## X006 (ip), vehicle: other) was 1 of 10 and 3 of 10.

In the case of `CCC1CC2CC(c3cc4c(cc3OC)N(C)C3C(O)(C(=O)OC)C(OC(C)=O)C5(CC)C=CCN6CCC43C65)c3[nH]c4ccccc4c3CCN(C1)C2` (stereo unspecified), the survivor count (dose: 1.6 mg/kg/injection, schedule: Q01DX005 (ip), vehicle: saline) is given as 6 of 6.

On to `NC(=O)c1ncn(C2OC(CO)C(O)C2O)n1` (stereo unspecified), for which the T/C (dose: 160.0 mg/kg/injection, schedule: Q01DX005 (ip), vehicle: saline) was 126 % of control. Moreover, the survivor count is, setting by setting: (dose: 320.0 mg/kg/injection, schedule: Q01DX005 (ip), vehicle: saline) 10 of 10; (dose: 640.0 mg/kg/injection, schedule: Q01DX005 (ip), vehicle: saline) 10 of 10.

As to `Clc1ccc(C(c2ccc(Cl)cc2)C(Cl)(Cl)Cl)cc1`, the survivor count is reported as 8 of 10 (dose: 64.0 mg/kg/injection, schedule: Q01DX005 (ip), vehicle: Klucel (hydroxypropylcellulose) (HPC)) and 4 of 10 (dose: 128.0 mg/kg/injection, schedule: Q01DX005 (ip), vehicle: Klucel (hydroxypropylcellulose) (HPC)).

Turning to `O=NN(CCCl)C(=O)NC1CCCCC1`, the T/C is 96, 107, 107 [7 of 10 alive], 113 % of control [6 of 10 alive] (dose: 2.5 mg/kg/injection, schedule: Q01DX001 (ip), vehicle: Klucel (hydroxypropylcellulose) (HPC)); 102 [6 of 10 alive], 105 [8 of 10 alive], 113, 119 % of control (dose: 5.0 mg/kg/injection, schedule: Q01DX001 (ip), vehicle: Klucel (hydroxypropylcellulose) (HPC)); 105 [7 of 10 alive], 106 [8 of 10 alive], 122, 138 % of control under setting [1]; 101 [6 of 10 alive], 124 [7 of 10 alive], 220, 300 % of control under setting [2]; 110 [9 of 10 alive], 169 [6 of 10 alive], 286, 301 % of control under setting [3]; 130 % of control (dose: 128.0 mg/kg/injection, schedule: Q01DX001 (ip), vehicle: Klucel (hydroxypropylcellulose) (HPC)). Moreover, the survivor count was 10 of 10 (dose: 64.0 mg/kg/injection, schedule: Q01DX005 (oral), vehicle: Klucel (hydroxypropylcellulose) (HPC)) and 10 of 10 (dose: 128.0 mg/kg/injection, schedule: Q01DX005 (oral), vehicle: Klucel (hydroxypropylcellulose) (HPC)).

As for `COc1cc([C@@H]2c3cc4c(cc3[C@@H](OC3OC5CO[C@@H](c6cccs6)OC5C(O)C3O)[C@H]3COC(=O)[C@H]23)OCO4)cc(OC)c1O` (stereo partly specified), where the note is “dose: 2.0 mg/kg/injection, schedule: Q01DX005 (oral), vehicle: saline”, the survivor count is recorded as 10 of 10.

Regarding `c1ccc([C@H]2CN3CCSC3=N2)cc1`, the survivor count by setting is: (dose: 40.0 mg/kg/injection, schedule: Q01DX009 (ip), vehicle: saline) 5 of 10; (dose: 80.0 mg/kg/injection, schedule: Q01DX005 (ip), vehicle: saline) 0 of 10.
